{"source": "PubChem BioAssay AID1259415", "about": "(National Center for Advancing Translational Sciences (NCATS), 2018)", "note": "Out of some 410,000 compounds screened, about 18,000 (4.4%) were called active. Inconclusive results, whose numbers are uncertain, are shown with a selection of clear calls. Rule as the data show it: active = activity change below about -60%; inconclusive = no clear call, values can overlap the other calls; inactive = above about -39%. Some compounds were tested as several samples or in several runs, with calls that do not always agree. % is scaled to controls: 0 for no effect and ±100 for the full control effect."}
{"assay": "qHTS Assay for inhibitors of the human cytomegalovirus (HCMV)", "conditions": "HFF cells, HCMV-luciferase reporter, 72 h; at 57.5 µM; stronger effect = lower value", "procedure,_shortened": "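After 16 h attachment at 37C, HFF cells received test compound and HCMV-luciferase (1 PFU/cell); reporter luminescence read 72 h later, data normalized against buffer-only and known inhibitor Salinomycin.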"}
{"smiles": "O=C(COc1ccc(F)cc1)N1CCCc2ccccc21", "activity change, negative = inhibition": "inconclusive: -42.6%"}
{"smiles": "NC(=O)c1sc2nccc(Nc3ccccc3)c2c1N", "activity change, negative = inhibition": "inconclusive: -59.7%"}
{"smiles": "O=C(NCCc1csc(-c2cccnc2)n1)c1c(F)cccc1F", "activity change, negative = inhibition": "inconclusive: 0%"}
{"smiles": "CN(C)c1ccc(-c2ccnc3c2CC(C)(C(=O)NCCc2ccccc2)O3)cc1", "note": "(stereo not drawn)", "activity change, negative = inhibition": "inactive: 0.655%"}
{"smiles": "CCN(C(=O)c1cccs1)c1nnc(-c2ccncc2)s1", "activity change, negative = inhibition": "active: -64.6%"}
{"smiles": "CC1(CCC(=O)N2CCCC(Nc3ccc(F)cc3)C2)CC1", "note": "(stereo not drawn)", "activity change, negative = inhibition": "inactive: -30.7%"}
{"smiles": "Cc1ccc(C(NC(=O)N2CCOCC2)=C(Cl)Cl)cc1F", "activity change, negative = inhibition": "active: -69.4%"}
{"smiles": "O=c1[nH]c2ccccc2n1C1CCN(C(c2nnnn2-c2ccc3c(c2)OCCO3)C2CC2)CC1", "note": "(stereo not drawn)", "activity change, negative = inhibition": "inconclusive: -56.4%"}
{"smiles": "N#C/C(=C\\c1c(N2CCCCC2)nc2ccccn2c1=O)C(=O)NCc1ccco1", "activity change, negative = inhibition": "inconclusive: -40.9%"}
{"smiles": "CN1CCN(c2ccc(C(CC(N)=O)NC(=O)c3ccccc3)cc2[N+](=O)[O-])CC1", "note": "(stereo not drawn)", "activity change, negative = inhibition": "active: -62.4%"}
{"smiles": "Cc1cccc2c(N)c3c(nc12)N(C)CC3", "activity change, negative = inhibition": "inconclusive: -58.3%"}
{"smiles": "CCOCCCNC(=O)c1ccc(-n2c(-c3ccccc3)cc3c2CCCCC3)cc1", "activity change, negative = inhibition": "inconclusive: -46%"}
{"smiles": "Cc1ccc(OCc2cc(C(=O)N(C)CCc3ccccn3)no2)cn1", "activity change, negative = inhibition": "active: -62.9%"}
{"smiles": "N#Cc1c(N2CCCCC2)nc(N2CCCCC2)c2c1CCN(Cc1ccccc1)C2", "activity change, negative = inhibition": "inconclusive: -49.8%"}
{"smiles": "O=C(NCc1ccccc1)C(c1ccc(-c2ccccc2)cc1)N1CCN(C(=O)C2CCCO2)CC1", "note": "(stereo not drawn)", "activity change, negative = inhibition": "inconclusive: -46.6%"}
{"smiles": "Cc1cccc(C(=Cc2ccc([N+](=O)[O-])cc2)C(=O)O)c1", "activity change, negative = inhibition": "inconclusive: -54%"}
{"smiles": "Cc1cc(C)cc(NC(=O)N2CCN(c3cc(-c4noc(C)n4)ccc3C)CC2)c1", "activity change, negative = inhibition": "inconclusive: -41.8%"}
{"smiles": "CN(C)CCCNc1cc(C(C)(C)C)nc2c(-c3ccccc3)cnn12", "activity change, negative = inhibition": "inactive: -1.05%"}
{"smiles": "Cc1ccc(/C=N/NC(=O)c2cc(C)oc2C)cc1", "activity change, negative = inhibition": "inconclusive: -46.6%"}
{"smiles": "CCOC(=O)c1c(NC(C)=O)c2c3c(sc2n1Cc1nc(-c2ccccc2Cl)oc1C)CCCC3", "activity change, negative = inhibition": "inactive: -19.6%"}
{"smiles": "CNC(=O)c1ccc(CN(C)C(=O)/C=C/c2ccc(S(=O)(=O)N3CCCCCC3)cc2)cc1", "activity change, negative = inhibition": "active: -84.4%"}
{"smiles": "CCN(CC)S(=O)(=O)c1ccc2c(c1)N(CC(=O)NCCCN1CCN(c3cc(Cl)ccc3C)CC1)C(=O)CO2", "activity change, negative = inhibition": "active: -74%"}
{"smiles": "Cc1cccc(-c2noc(CNC(=O)c3ccccc3Br)n2)c1", "activity change, negative = inhibition": "inactive: -18.5%"}
{"smiles": "COC(=O)c1ccc(Cn2ccc(=O)[nH]c2=O)cc1", "activity change, negative = inhibition": "inactive: -4.11%"}
{"smiles": "O=C(CSc1nc2ccccc2n1CC(=O)N1CCCC1)Nc1nccs1", "activity change, negative = inhibition": "inactive: 20%"}
{"smiles": "Oc1ccc(NCc2ccc(OCc3ccccc3)cc2)cc1", "activity change, negative = inhibition": "active: -62.9%"}
{"smiles": "Cc1cc(C)c(C#N)c(SCC(=O)Nc2c(C)n(C)n(-c3ccccc3)c2=O)n1", "activity change, negative = inhibition": "inconclusive: -43.2%"}
{"smiles": "O=C(CCN1N=C(c2ccccc2)CCC1=O)NC1CCCCC1", "activity change, negative = inhibition": "active: -76.7%"}
{"smiles": "CC1(C)CC(=NOC(=O)c2ccccc2)CC(C)(C)N1O", "activity change, negative = inhibition": "inconclusive: -41.4%"}
{"smiles": "COc1ccc(NC(=O)C2CCN(S(=O)(=O)c3cccnc3)CC2)cc1Cl", "activity change, negative = inhibition": "inconclusive: -48.1%"}
{"smiles": "CCCN(CCC)S(=O)(=O)c1ccc(C(=O)Nc2nnc(CSC)o2)cc1", "activity change, negative = inhibition": "inconclusive: -58.8%"}
{"smiles": "O=C1Nc2ccccc2CCC1Sc1nnc(-c2ccc(Cl)cc2)s1", "note": "(stereo not drawn)", "activity change, negative = inhibition": "inconclusive: -44.3%"}
{"smiles": "COc1ccccc1/C=N/N1C(=O)C(CC(=O)Nc2ccc([N+](=O)[O-])cc2OC)SC1=Nc1cccc(C)c1C", "note": "(stereo not drawn)", "activity change, negative = inhibition": "inconclusive: -59.5%"}
{"smiles": "Cn1c(SCC(=O)N2CCN(c3cccc(Cl)c3)CC2)nnc1-c1ccncc1", "activity change, negative = inhibition": "active: -66.8%"}
{"smiles": "C=CCNC(=O)COC(=O)c1ccc(Cl)c(S(N)(=O)=O)c1", "activity change, negative = inhibition": "inconclusive: -57.5%"}
{"smiles": "CCN(CC)C(=O)N1c2ccccc2Sc2ccccc21", "activity change, negative = inhibition": "inconclusive: -59.1%"}
{"smiles": "Cc1nc(NCCc2ccc(F)cc2)c(C#N)c(C)c1[N+](=O)[O-]", "activity change, negative = inhibition": "inconclusive: -52.4%"}
{"smiles": "CCN(C(=O)c1cn(CC(C)C)c(=O)c2cc(OC)c(OC)cc12)c1cc(OC)ccc1OC", "activity change, negative = inhibition": "inactive: -28%"}
{"smiles": "COc1cc(/C=N/NC(=O)CNc2n[nH]c(=O)[nH]c2=O)ccc1OCc1ccccc1", "activity change, negative = inhibition": "inconclusive: -42.4%"}
{"smiles": "CC(C)c1ccc(NC(=O)N2CCC(c3nc4ccccc4o3)CC2)cc1", "activity change, negative = inhibition": "inactive: -18.3%"}
{"smiles": "Cc1ccc(NC(=O)COc2cccc3ccccc23)c(O)c1", "activity change, negative = inhibition": "inactive: -11.9%"}
{"smiles": "CCOC(=O)C1=C(CCc2ccccc2)NC(=O)NC1c1ccc(C#N)cc1", "note": "(stereo not drawn)", "activity change, negative = inhibition": "inactive: -30.5%"}
{"smiles": "O=C(c1ccccc1Cl)N(C(=O)c1ccccc1Cl)c1nccc(-c2cccs2)n1", "activity change, negative = inhibition": "inactive: -18%"}
